Experimental data reported in paper PMC12040169 (PLOS Biology, 2025).
Some of the results follow.

System: T1, CTL2-GFP (C. trachomatis L2/434/Bu, GFP-expressing)
T1 construct: L2/434/Bu, GFP-expressing
Parameters: species or system HeLa; Intracellular C. trachomatis growth in HeLa cells, bulk GFP fluorescence relative to DMSO
Settings: bulk GFP, single well; 28.5 h, 10 µM; inhibitor

| Structure (SMILES) | % of control remaining |
| --- | --- |
| CC(C)(CN)CN(Cc1ccccc1C(F)(F)F)C(=O)Nc1ccc(Cl)cc1Cl [CBK026832C] | 148.886% |
| O=c1n(Cc2cccnc2)c2cccnc2n1Cc1cccs1 [CBK283903] | 140.469% |
| CC(C)[C@H](NC(=O)Cc1n[nH]c(=O)c2ccccc12)C(=O)O [CBK286607] | 139.056% |
| O=C(N/N=C\c1cccc2ccccc12)c1ccc(CO)nc1 [CBK261377] | 109.731% |
| Cc1cccnc1C(NC(=O)C1CCN(Cc2ccoc2)CC1)c1ccc(Cl)cc1 (stereo not shown) [CBK148227] | 117.17% |
| O=C(Nc1cc(Cl)cc(Cl)c1)c1csnn1 [CBK057759] | 128.962% |
| CCN1CCCC1CN(Cc1ccccn1)Cc1ccco1 (stereo not shown) [CBK283161] | 111.351% |
| Cc1cc(F)ccc1S(=O)(=O)NCC1CC(=O)Nc2ccccc21 (stereo not shown) [CBK305210] | 121.44% |
| Cc1c(CNCCN2CCCC2=O)c2ccccc2n1C [CBK281519] | 133.253% |
| O=C(COc1ccccc1[N+](=O)[O-])Nc1nc2c(s1)CCC2 [CBK296663] | 147.397% |
| COc1ccc(CN2CC=CC2C(=O)O)cc1Cn1cncn1 (stereo not shown) [CBK307524] | 157.714% |
| COc1ccccc1OCCSc1nnnn1C1CCCCC1 [CBK141884] | 80.6616% |
| CC(Cc1nc(-c2nccn2C(C)C)cs1)n1cc(Cl)cn1 (stereo not shown) [CBK304251] | 42.6216% |
| Cc1cc2ccccc2c(=O)n1CCO [CBK015621] | 135.856% |
| O=C(COc1ccc(CCO)cc1)Nc1ccccc1-c1ccccc1 [CBK269666] | 127.641% |
| CC(Cc1nc(-c2cnnn2C)cs1)n1cc(Cl)cn1 (stereo not shown) [CBK304245] | 95.3509% |
| FC(F)(F)c1ccc(-c2nnc(C3CC3)o2)cc1 [CBK021992] | 126.013% |
| Cc1ccsc1CCNC(=O)C1(Oc2cccnc2C)CCNCC1 [CBK307374] | 139.585% |
| Cc1cc(C)n(CC2CCCCN2CC(=O)NC(C)c2ccco2)n1 (stereo not shown) [CBK305331] | 125.263% |
| O=C(O)CCSc1nnnn1-c1ccccc1 [CBK287217] | 146.293% |
| COc1ccc2cc(C(=O)N(CCO)Cc3ccc(C)s3)n(C)c2c1 [CBK306831] | 92.3871% |

Another view of 3 compounds above.
Structure (SMILES),% of control remaining
CC(C)(CN)CN(Cc1ccccc1C(F)(F)F)C(=O)Nc1ccc(Cl)cc1Cl [CBK026832C],148.886%
CC(Cc1nc(-c2cnnn2C)cs1)n1cc(Cl)cn1 (stereo not shown) [CBK304245],95.3509%
Cc1ccsc1CCNC(=O)C1(Oc2cccnc2C)CCNCC1 [CBK307374],139.585%

(further entries)

| Structure (SMILES) | % of control remaining |
| --- | --- |
| Cc1ccc(C(=O)C2=C(O)C(=O)N(CCN(C)C)C2c2ccccn2)o1 (stereo not shown) [CBK266536] | 130.032% |
| O=C(/C=C/c1cn(C2CC(O)C(CO)O2)c(=O)[nH]c1=O)NCCNC(=O)C(F)(F)F (stereo not shown) [CBK201214] | 149.098% |
| Cc1cc(C)c2c(CC(=O)NCCCN3CCOCC3)coc2c1 [CBK268307] | 124.31% |
| Cc1nc(CC(=O)O)c(-c2ccccc2)s1 [CBK264988] | 113.221% |
| CCN(CC)CCCOC(=O)C(CCSC)c1ccccc1C (stereo not shown) [CBK023177C] | 164.835% |
| COC(=O)c1cc(-c2ccccc2OCc2ccccc2)ccc1NC(=O)c1ccc(Cl)cc1Cl [CBK000415] | 135.371% |
| O=C(NCc1cccs1)c1cc(S(=O)(=O)N2CCOCC2)c(Cl)cc1Cl [CBK269657] | 123.923% |
| COc1ccc(CCNC(=O)c2ncoc2-c2cccs2)cc1 [CBK283663] | 94.2949% |
| CS(=O)(=O)N(CC(=O)N/N=C/c1ccncc1)c1ccccc1Br [CBK263911] | 114.959% |
| CNCCOc1ncccc1OCc1ccccc1 [CBK036306] | 112.114% |
| CCc1nc(C2CCCN2c2ncc(C#N)cc2Cl)no1 (stereo not shown) [CBK305183] | 128.485% |
| COc1ccccc1NC(=N)Nc1nc(CSc2nc3ccccc3s2)cc(=O)[nH]1 [CBK269046] | 144.84% |
| O=C(NCCc1nc2ccccc2[nH]1)c1cccs1 [CBK020529] | 138.516% |
| CCN(CC)CCNc1nc(-c2cccc(Cl)c2)nc2ccccc12 [CBK267265C] | 47.3872% |
| Cc1c(C#N)c(=O)oc2ccccc12 [CBK007705] | 137.366% |
| COc1ccc(NC(=O)C2C3CCC(C3)C2C(=O)O)cc1OC (stereo not shown) [CBK263684] | 100% |
| CC(=O)NC1(c2ccc(F)cc2)CCN(C(=O)C2CCC2)CC1 [CBK283492] | 89.1888% |
| CCC(COC)NS(=O)(=O)c1ccc(C(C)C)cc1 (stereo not shown) [CBK044587] | 81.2228% |
| O=C(CN1C(=O)[C@@H]2CCCN2c2ncccc21)NC1CCCCC1 [CBK286204] | 106.888% |
| Nc1ncc(-c2cccc(/C=C/C(=O)O)c2)nc1N1CCN(CCO)CC1 [CBK063665] | 161.679% |
| Cc1c(S(=O)(=O)Nc2ccc3cn[nH]c3c2)cnn1-c1ccccc1 [CBK067149] | 168.632% |

| Structure (SMILES) | % of control remaining |
| --- | --- |
| C[C@@H](Cn1nnc2ccccc21)NC(=O)Cc1ccccc1F [CBK282305] | 124.671% |
| COc1ccc(-c2nc(NC(=O)CC#N)cnc2-c2ccc(F)cc2)cc1 [CBK037198] | 186.535% |
| CN1CCC2(CC1)CC(NC(=O)c1ccco1)c1ccccc1O2 (stereo not shown) [CBK283804] | 144.997% |
| COc1cccc2sc(Nc3nc(-c4cccnc4)cs3)nc12 [CBK287470] | 108.308% |
| CN1CCN(C(=O)c2ccsc2NS(=O)(=O)/C=C/c2ccccc2)CC1 [CBK042267] | 100% |
| COc1ccc(NC(=O)C2CCCCC2C(=O)O)c(C)c1 (stereo not shown) [CBK270301] | 117.084% |
| O=C(O)C1CC(O)CN1S(=O)(=O)c1ccc([N+](=O)[O-])cc1 (stereo not shown) [CBK266158] | 150.73% |
| COCCN1CCN(C(=O)NCCc2c(C)[nH]c3ccc(Cl)cc23)CC1 [CBK307637] | 128.35% |
| O=C(CCN1C(=O)[C@@H]2Cc3ccccc3CN2C1=O)N[C@H](C(=O)O)c1ccccc1 [CBK286751] | 107.931% |
| CCN1CCCC(NC(=O)COc2nn(C)c3nc(C)cc(C)c23)C1 (stereo not shown) [CBK305224] | 67.23% |
| O=C1CCc2cccc(OCCOc3nccnc3N3CCNCC3)c21 [CBK200001G] | 116.488% |
| O=C(C1CC1)N1CCC(Cn2nc(-c3cccs3)ccc2=O)CC1 [CBK284039] | 132.988% |
| COCC1(C(=O)N(C)Cc2nnc(-c3ccccc3)o2)CCC1 [CBK306987] | 124.251% |
| O=c1[nH]ccn1CCNc1ccc(-c2cccc(Cl)c2Cl)cn1 [CBK037745] | 186.477% |
| CC(C)(C)C(=O)Nc1ccc(Cc2ccc(NC(=O)C(C)(C)C)c(C(=O)O)c2)cc1C(=O)O [CBK261393] | 111.063% |
| CC(=O)c1c(C)n(O)c2ccc(Cl)cc2c1=O [CBK217746] | 99.8565% |
| C=CCOc1ccc(-c2nn(-c3ccccc3)cc2/C=C2/SC(=S)N(CC(=O)O)C2=O)c(C)c1 [CBK265062] | 138.411% |
| CC1=CCC(C(=O)O)C(C(=O)Nc2cccnc2)C1 (stereo not shown) [CBK265895] | 132.622% |
| O=C(NC1(c2ccccc2)CC1)c1ccc(-n2cnnc2)cc1 [CBK282778] | 81.6684% |
| CC(C)(C)OC(=O)NCc1ccc(CNCc2ccccc2Br)cc1 [CBK056701] | 90.7747% |
| Cn1cc([C@@H]2CN(Cc3cccs3)C[C@H]2N)c2ccncc21 [CBK285320] | 124.151% |

A few values from the results shown.
`O=c1[nH]ccn1CCNc1ccc(-c2cccc(Cl)c2Cl)cn1` [CBK037745] – % of control remaining: 186.477%
`CC(C)(C)OC(=O)NCc1ccc(CNCc2ccccc2Br)cc1` [CBK056701] – % of control remaining: 90.7747%
`O=C1CCc2cccc(OCCOc3nccnc3N3CCNCC3)c21` [CBK200001G] – % of control remaining: 116.488%

Later entries

| Structure (SMILES) | % of control remaining |
| --- | --- |
| Cc1nn(CC(=O)C(C)(C)C)c(=O)c2cc3sccc3n12 [CBK284111] | 114.156% |
| O=c1[nH]c2c(c(=O)[nH]1)[C@H]1[C@H](O)[C@H](O)C[C@H]1[C@@H](c1ccccc1)N2 [CBK303239] | 140.572% |
| O=S(=O)(c1cc(Cl)ccc1Cl)N1CCSC1 [CBK097980] | 145.785% |
| NS(=O)(=O)c1ccc(NC(=O)CSc2ccc([N+](=O)[O-])cn2)cc1 [CBK269002] | 70.7271% |
| CCc1csc(C2CN3CCCC3CO2)n1 (stereo not shown) [CBK304793] | 114.51% |
| Cc1ccc(Oc2ccc(C(=O)NCC(=O)O)cc2)cc1C [CBK286570] | 114.936% |
| CCN(CC)C(=O)C1CCCN(C(=O)Nc2cccc(OC)c2)C1 (stereo not shown) [CBK005159] | 114.276% |
| NC(=O)c1ccc(NC(=O)c2sc3ccccc3c2Cl)cc1 [CBK262643] | 105.065% |
| Cn1c(-c2ccc(C(=O)O)cc2)cc2oc(-c3ccccc3)nc2c1=O [CBK074957] | 89.1048% |
| Cc1ccc(Cl)cc1NC(=O)c1cc(NC(=O)C2C3C=CC(C3)C2C(=O)O)ccc1N1CCCCC1 (stereo not shown) [CBK268194] | 133.06% |
| Cc1cc(C(=O)NCCO)ccc1Br [CBK175092] | 146.128% |
| Cc1ccc(CSCCNS(=O)(=O)c2ccsc2C(=O)O)cc1 [CBK296727] | 136.814% |
| COc1cccc(C(=O)NC(c2ccc([N+](=O)[O-])cc2)c2c(O)ccc3ccccc23)c1 (stereo not shown) [CBK263971] | 134.379% |
| COc1ccc(-c2ccc(OC)cc2C(=O)Nc2ccc3c(c2)OCC(=O)N3)cc1 [CBK285821] | 123.114% |
| Cn1c(=O)c2c(nc(NCCCO)n2C/C=C/c2ccccc2)n(C)c1=O [CBK268940] | 123.861% |
| O=C(O)C1CCCCC1C(=O)NCc1cccnc1 (stereo not shown) [CBK261695] | 99.5066% |
| COc1cc2c(cc1CNC(=O)c1cn(CCN)nn1)CCC2 [CBK306886] | 19.7773% |
| CC(Cn1cccn1)NCC(=O)NC1(C#N)CCCCC1 (stereo not shown) [CBK304845] | 128.44% |
| COC(=O)[C@@H]1CN(C(=O)C2CCCC2)CCN1C(=O)c1cccs1 [CBK289609] | 123.949% |
